Our source for the activation (acetylation increase) values is PubChem BioAssay AID720513 (Broad Institute, 2013).

Screen size: about 2,100 compounds; about 480 (23%) were called active. Not shown: some 5% with an inconclusive outcome. The entries are a selection whose mix differs from that of the whole data set. Measured potencies and affinities stand elsewhere.

The assay in a line: PGC1a acetylation increase, cellular AlphaLISA – cell-based, cherry-picked samples, set 6, dose response (AID 720513). To be noted: U2OS PGC1a acetylation AlphaLISA, overnight; at 21 µM (top of the series). (Bead proximity is the source of the signal in Alpha formats.)
Consider `C[C@@H]1CN([C@H](C)CO)C(=O)c2c(c3ccccc3n2C)-c2ccccc2CO[C@@H]1CN(C)C(=O)Oc1ccccc1`, for which the activation (acetylation increase) is inactive: 357%.
